Patent US20250170103A1, “4-(6-OXO-2-(TRIFLUOROMETHYL)-3,6-DIHYDROCHROMENO[7,8-D]IMIDAZOL-8-YL)BENZONITRILE FOR USE IN THE TREATMENT OF DISEASES AND CONDITIONS ASSOCIATED WITH MOVEMENT DISORDERS” (OnTrack Therapeutics Limited, priority 2022, published 2025)

Tested on: primary SOD1 transgenic spinal cord motor neurons injured with glutamate
Assay: In vitro ALS model: glutamate-injured primary spinal motor neurons (MAP2/TDP43, 24 hours)
Format: cell-based, rat
Details: positive controls: Riluzole 5 μM, BDNF 50 ng/ml, glutamate 5 μM 20 min, compared to the control, FIG. 5
Experimental: Cells were mechanically dissociated by three forced passages through the tip of a 10-ml pipette. Cells were then centrifuged at 515×g for 10 min at 4° C. […] Viable cells were counted in a Neubauer cytometer, using the trypan blue exclusion test. […] The medium was changed every 2 days.

Structure (SMILES): Nc1nc2ccc(OC(F)(F)F)cc2s1 [Riluzole, reference compound]
- number of motor neurons: statistically significant increase in the number of motor neurons
